## Primary screen of a compound library

Source: ChEMBL document CHEMBL3988442, “University of Dundee, Small-Polar-MMV Screening Library” (2021).

Values are the deposited “Percent Effect”, in %.
The record does not define 0% and 100%; most values in the screen are far below 50% and negative numbers occur (in some assays of this library far below -100).
This is an unselected part of the compounds tested.
Two or more numbers in one place are separate tests of the same structure; such repeats can differ widely.

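Viability assay of Plasmodium falciparum sporozoites; the read-out is not stated. The concentration is filed as 10 mM, unlikely as a test dose, so the dose is not known. Higher reads as lower viability (inferred: compounds with an IC50 in retests scored well above the rest). Strong results were mostly tested again. Of about 34,000 compounds tested this way, about 280 (0.84%) reached 50% or more in at least one test.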

structure,effect
Cn1ccnc1CNC1CCCN(Cc2noc(C3CC3)n2)C1 (centres unmarked),-14
CC(C)(CO)NCc1ccc(OCc2ccc3c(c2)OCCO3)cc1.Cl,25.27 and 55.16
COCCCN1Cc2cccc(NC(=O)c3ccccc3Cl)c2C1,-4.167 and -30.14 and -24.61
O=C(N1CCOCC1)N1CCC2(CC1)CN(c1ccccn1)CCO2,-0.5945
Cc1nc(Cn2c3c(ccc2=O)CC(N)CC3)cs1 (centres unmarked),19.44
CCCC1CCCN(C(=O)CCn2cccn2)CC1 (centres unmarked),-0.2681
CCc1nc(CN2CCCN(C(=O)c3c(C)noc3C)CC2)cs1,8.374
CC(=O)NCC(=O)N1CCCC1c1ccc(CN2CCOCC2)cn1 (centres unmarked),2.072
COc1c(CNC(C)C(=O)NC2CCCC2)c(C(C)C)nn1C (centres unmarked),-1.959
CNCc1ccc([C@@H]2CN(C)C[C@H]2C(N)=O)cc1.Cl,-4.467
Cc1cc(NC(=O)NCCOc2ccc(Cl)cn2)no1,-7.368
Cc1ccc(-c2nnc(CNC(=O)c3cccnc3)o2)cn1,-11.19
COCCN1CCC(c2cncc(-c3ccccc3C)n2)CC1,4.841
CC(=O)N1CCC2(CCCN(S(=O)(=O)c3ccc(F)cc3)C2)C1 (centres unmarked),7.268
O=C(O)C(F)(F)F.O=C(O)C(F)(F)F.[H][C@]12CCN(C(=O)CCC)CC[C@@]1([H])S(=O)(=O)CCN2Cc1cccnc1,-4.51
CCN(CC(=O)NC)C(=O)Cc1nc(-c2ccco2)oc1C,-0.4292
O=C(O)C(F)(F)F.O=C(O)C(F)(F)F.c1cnc(N2CC3(CCN(Cc4ccncc4)C3)C2)nc1,-6.54
Cc1cc(NC2CCN(c3ccccc3)C2)n2ncnc2n1 (centres unmarked),4.55
CC(Cn1cccn1)NC(=O)Nc1ccc(F)cc1 (centres unmarked),-5.375
Cc1noc(C)c1CN1CCN(Cc2ccncc2)c2ncccc2C1.O=C(O)C(F)(F)F.O=C(O)C(F)(F)F.O=C(O)C(F)(F)F,-15.57
CN(Cc1nnc(-c2cccs2)o1)Cc1nc2c(s1)CCCC2,22.52 and 35.26 and 20.64
NC(=O)C1CCN(C(=O)NCc2cccnc2OCC(F)(F)F)C1 (centres unmarked),9.571
[H][C@@]12CCN(Cc3cc(C)on3)C[C@@]1([H])O[C@@H](C)C2,-9.6
COCCN1CC(C(=O)N(C)Cc2ccc(Cl)s2)CC1=O (centres unmarked),-5.882
O=C(O)C(F)(F)F.[H][C@]12C[C@H](C(=O)NC)N(S(C)(=O)=O)[C@@]1([H])CN(Cc1csc(C)n1)C2,13.78
O=C(NCc1cc(O)ncn1)C1COc2ccccc2C1 (centres unmarked),-78.27
CC(c1nc(C2CC2)no1)N1CCN(CCCN2CCCC2=O)CC1 (centres unmarked),-11.52
CCN1CCOC(CNCc2ccccn2)C1 (centres unmarked),-2.2
O=C(NCc1nnc2ccccn12)N1CCc2sccc2C1,-24.11
CC1CCN(C(=O)c2cnc(CC3CCCN(C)C3)cn2)CC1 (centres unmarked),-8.402
Cc1ccc(C(CNCc2ccc(C#N)cc2)N2CCOCC2)s1 (centres unmarked),-25.78 and -14.92 and 4.72
CCn1ncc2c1C(COCC1CC1)CN(C(=O)c1ccncn1)C2.O=C(O)C(F)(F)F (centres unmarked),-4.4
COc1ccc(C(=O)N2CC(=O)N(CC3CC3)CC(O)C2)cc1 (centres unmarked),-34.06
Cc1cc(N2CCC(N(C)C(=O)Nc3ccccc3)CC2)nc(C)n1,-7.674
O=C(O)C(F)(F)F.[H][C@@]12CCN(Cc3ccoc3)C[C@]1([H])OCCN(c1ccccc1)C2=O,-19.95
CCOC(=O)N1CCCC2(CCCNC2)C1.Cl (centres unmarked),-5.988
Cn1ncc2c(NCCC34CCCN3CCC4)nc(C3CCCC3)nc21,4.368
COc1cc(CNCC(O)c2ccccc2)cc2c1OCO2.Cl (centres unmarked),5.602
Cc1csc(CN2CCC3(CC2)COC(COc2ccccn2)C3)n1 (centres unmarked),7.089
O=C(O)C(F)(F)F.[H][C@@]12CCCO[C@]1([H])[C@H](OCC)CN2S(=O)(=O)c1cn(C)cn1,9.414
CC(=O)N1N=C(c2ccccc2)OC1C(=O)NCCc1ccc(Cl)cc1 (centres unmarked),-1.707
CN1CCCN(c2nc(C3CC3)ns2)CC1,-29.16 and -36.71
[H][C@]12CCN(C(=O)c3cccc(C)c3)C[C@@]1([H])OCCN(c1ncccn1)C2,1.46
CCC(C)NC(=O)c1cc(S(=O)(=O)N2CCCC2)c(C)s1 (centres unmarked),10.53
O=C(CCn1cncn1)NCC(c1ccco1)N1CCCCC1 (centres unmarked),6.565
CN(Cc1ccco1)C(=O)CN1CCCCC1Cn1cccn1 (centres unmarked),-10.87
Oc1cc(C2CCCCN2CC2CC2)nc(-c2ccncc2)n1 (centres unmarked),7.62
CCCc1n[nH]c(C2CN(CCNS(C)(=O)=O)CCO2)n1 (centres unmarked),8.95
O=C(NCCc1c[nH]c2ccccc12)C1(n2cnnn2)CCCCC1,-7.902
Cl.O=C(NC1CCCC1)C1(Cc2cc(C3CCOC3)no2)CCNCC1 (centres unmarked),4.059
COc1cccc(-c2cc(C3CCCNC3)ccn2)c1 (centres unmarked),10.99
O=C(c1nn(-c2ccccc2F)cc1O)N1CCCC1,-3.425
Cc1cccc(=O)n1CCCNc1nc(N(C)C)nc2c1CCNC2,13.93
O=c1[nH]c(CCN2CCCC(Cn3cncn3)C2)nc2ccccc12 (centres unmarked),8.605
O=C(COc1coc(CN2CCCC2)cc1=O)NCc1ccccc1Cl,0.8772
Cc1nnc(N2CCCC3(CN(c4ccccn4)CCO3)C2)o1.O=C(O)C(F)(F)F (centres unmarked),4.895
CN(CCC#N)C(=O)CN1CCCC1c1ccsc1 (centres unmarked),-5.931
CC(C)(C)C(O)CN1CCN(CC(=O)NC(C2CC2)C2CC2)CC1 (centres unmarked),1.891
Cc1ccccc1OCCC(=O)N1CCC(c2nncn2C)CC1,2.17 and -2.919 and 0.9191
CCS(=O)(=O)c1ncc(CN(C)Cc2ccccn2)n1CCOC,-7.588
O=C(O)C(F)(F)F.O=C(O)C(F)(F)F.[H][C@@]12COC[C@]1(COCc1ccncc1)CN(Cc1cccc(F)c1)C2,-13.44
CS(=O)(=O)NC1CCN(C(=O)c2[nH]c3ccc(Cl)cc3c2Cl)CC1,2.971
O=C(COCC1CC1)Nc1cc(-c2ccc(Br)s2)n[nH]1,-22.56
CCc1noc(C(C)N2CCN(S(=O)(=O)N3CCCC3)CC2)n1 (centres unmarked),10.98
O=C1C(NS(=O)(=O)c2ccc(F)c(F)c2)CCN1Cc1ccccc1 (centres unmarked),0.8873

Some entries from above, unchanged:

- CCC(C)NC(=O)c1cc(S(=O)(=O)N2CCCC2)c(C)s1 (centres unmarked) | 10.53%
- CNCc1ccc([C@@H]2CN(C)C[C@H]2C(N)=O)cc1.Cl | -4.467%
- Cc1cc(NC2CCN(c3ccccc3)C2)n2ncnc2n1 (centres unmarked) | 4.55%
- O=C(COc1coc(CN2CCCC2)cc1=O)NCc1ccccc1Cl | 0.8772%
- CN(Cc1ccco1)C(=O)CN1CCCCC1Cn1cccn1 (centres unmarked) | -10.87%
- CCc1nc(CN2CCCN(C(=O)c3c(C)noc3C)CC2)cs1 | 8.374%
- [H][C@]12CCN(C(=O)c3cccc(C)c3)C[C@@]1([H])OCCN(c1ncccn1)C2 | 1.46%